Results reported in US20080318255A1, “Fluorescent Labeled Sphingosines” (priority 2003, published 2008).
Some results were stated once for a whole list of compounds, not compound by compound.

Target: T1, human SPHK-2 (Homo sapiens, UniProt Q9NRA0)
T1 construct: expressed in transfected cells; host or cells: HEK-293 (cytoplasmic fraction)
T1 sequence (Q9NRA0 1-654): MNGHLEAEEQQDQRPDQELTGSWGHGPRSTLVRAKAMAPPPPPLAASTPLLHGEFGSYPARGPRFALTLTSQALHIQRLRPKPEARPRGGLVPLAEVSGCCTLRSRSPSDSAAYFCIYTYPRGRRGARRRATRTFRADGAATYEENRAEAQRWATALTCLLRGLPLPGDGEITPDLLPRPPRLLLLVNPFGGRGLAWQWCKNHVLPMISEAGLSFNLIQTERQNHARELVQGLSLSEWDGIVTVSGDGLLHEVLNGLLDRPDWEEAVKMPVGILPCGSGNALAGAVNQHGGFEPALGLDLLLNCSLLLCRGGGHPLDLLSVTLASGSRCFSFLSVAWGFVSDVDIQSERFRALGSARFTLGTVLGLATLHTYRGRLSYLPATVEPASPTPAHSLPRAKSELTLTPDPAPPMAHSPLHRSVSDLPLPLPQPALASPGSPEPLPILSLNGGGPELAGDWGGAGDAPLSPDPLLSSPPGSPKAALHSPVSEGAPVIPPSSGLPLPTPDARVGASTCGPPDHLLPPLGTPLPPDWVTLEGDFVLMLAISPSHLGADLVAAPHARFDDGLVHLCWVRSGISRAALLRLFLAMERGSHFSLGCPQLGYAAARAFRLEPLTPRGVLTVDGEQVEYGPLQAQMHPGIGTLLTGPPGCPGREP
Assay: Phosphorylation of fluorescent labeled sphingosines by SPHK-2 ([γ-32P]ATP, TLC)
Assay type: biochemical
Experimental: The phosphorylation reactions are performed essentially as follows. The cytoplasmic fraction of recombinant HEK-293 cells overexpressing human SPHK-1 or -2 is incubated at 30° in total volumes of 100 μl with SP derivatives (20 μM; added from stock solutions in DMSO), 1 mM of ATP, and 2 μCi [γ-^32P]ATP in 50 mM Hepes buffer (pH 7.4) containing 15 mM MgCl2, 0.005% Triton X-100, 10 mM KCl , 10 mM NaF and 1.5 mM semicarbazide. Following incubations for different time points up to 2 hours, lipids are extracted and separated by TLC-plates (Merck). TLC is performed on silica plates, using either BuOH/acetic acid/H2O 3:1:1 or CHCl3/MeOH/H2O/NH4OH (28^w/w%) 200:150:29:1 as the mobile phase. In these systems sphingosine and the compound of Example 4 co-migrate. Identity of the metabolites with pyrene-labeled SPP and sphingomyelin (SM) is established by co-migration with commercially available tritium-labeled SPP and SM as standards.
Radiolabeled SPP derivatives are visualized and quantified using a Molecular Dynamics Storm Phosphorlmager (Sunnyvale, Calif.). The rate of phosphorylation is calculated and is reported for the fluorescent labeled sphingosines as value relative to the rate for sphingosine (for which the rate is 41 and 25 nmol/min/mg with SPHK-1 and -2, respectively). […]

## N[C@@H](CO)[C@H](O)/C=C/CCCOC(=O)CCCc1cc2ccc3cccc4ccc(c1)c2c34 [Example 1]
  phosphorylation by SPHK-2 (in words): higher than using SPHK-1
